Test results published in PubChem BioAssay AID248 (DTP/NCI, 2004).
The list shows only some results of the screen, not a fair sample: it gathers tests that were run many times, whatever their T/C, doses with no T/C, and many T/C values between a quarter and a half above the control. Further doses and runs are listed elsewhere. T/C gives the treated animals as a percentage of the vehicle group. Some doses have a count of surviving animals in place of a T/C: the source holds a T/C of zero for them, seemingly a mark for toxic or unscored doses. Some doses without a T/C left all or most animals alive at the check, yet need not have been tolerated: the source hardly ever lists a survival T/C far under the control, and the zero likely stands for such cases as well. Counts of survivors are from the toxicity check (mostly the fifth day) where no day follows; animals may have died later. Schedules are NCI's codes, read here as Q, the interval in days (D) or hours (H), X, the number of doses. Some entries were tested several times; the values are given in rising order.

Tested on: L1210 leukemia ip in BDF1 mice, survival T/C
Experiment: NCI In Vivo Anticancer Drug Screen. Data for tumor model L1210 Leukemia (intraperitoneal) in B6D2F1 (BDF1) mice
Conditions: T/C endpoint: mean survival time, higher T/C = longer survival
[1] = dose: 50.0 mg/kg/injection, schedule: Q01DX009 (ip), vehicle: Klucel (hydroxypropylcellulose) (HPC)

SMILES: COc1ccc(/C=N/n2c3ccccc3c3ccccc32)cc1OCCN(C)C
- survivor count [1]: 3 of 6
- survivor count (dose: 100.0 mg/kg/injection, schedule: Q04DX003 (ip), vehicle: Klucel (hydroxypropylcellulose) (HPC)): 4 of 4
- survivor count (dose: 200.0 mg/kg/injection, schedule: Q04DX003 (ip), vehicle: Klucel (hydroxypropylcellulose) (HPC)): 0 of 4
- survivor count (dose: 400.0 mg/kg/injection, schedule: Q04DX003 (ip), vehicle: Klucel (hydroxypropylcellulose) (HPC)): 4 of 4

SMILES: CC(=O)NCC(=O)[O][Sn]([c]1ccc(C)cc1)([c]1ccc(C)cc1)[c]1ccc(C)cc1
- survivor count (dose: 6.25 mg/kg/injection, schedule: Q01DX009 (ip), vehicle: saline with Tween-80): 1 of 3
- survivor count (dose: 12.5 mg/kg/injection, schedule: Q01DX009 (ip), vehicle: saline with Tween-80): 0 of 3
- survivor count (dose: 25.0 mg/kg/injection, schedule: Q01DX009 (ip), vehicle: saline with Tween-80): 0 of 3
- survivor count (dose: 50.0 mg/kg/injection, schedule: Q01DX009 (ip), vehicle: saline): 0 of 3
- survivor count (dose: 100.0 mg/kg/injection, schedule: Q01DX009 (ip), vehicle: saline): 0 of 3
- survivor count (dose: 200.0 mg/kg/injection, schedule: Q01DX009 (ip), vehicle: saline): 0 of 3

SMILES: CCC[CH2][Sn]([CH2]CCC)([O]S(C)(=O)=O)[O]S(C)(=O)=O
- survivor count (dose: 6.25 mg/kg/injection, schedule: Q01DX009 (ip), vehicle: Klucel (hydroxypropylcellulose) (HPC)): 0 of 3
- survivor count (dose: 12.5 mg/kg/injection, schedule: Q01DX009 (ip), vehicle: Klucel (hydroxypropylcellulose) (HPC)): 0 of 3
- survivor count (dose: 25.0 mg/kg/injection, schedule: Q01DX009 (ip), vehicle: Klucel (hydroxypropylcellulose) (HPC)): 0 of 3
- survivor count [1]: 0 of 3
- survivor count (dose: 100.0 mg/kg/injection, schedule: Q01DX009 (ip), vehicle: Klucel (hydroxypropylcellulose) (HPC)): 0 of 3 and 0 of 6
- survivor count (dose: 200.0 mg/kg/injection, schedule: Q01DX009 (ip), vehicle: Klucel (hydroxypropylcellulose) (HPC)): 0 of 6
- survivor count (dose: 400.0 mg/kg/injection, schedule: Q01DX009 (ip), vehicle: Klucel (hydroxypropylcellulose) (HPC)): 0 of 6

SMILES: O=C(O)c1ccc(-c2ccc(C(=O)O)cc2I)c(I)c1
- survivor count (dose: 400.0 mg/kg/injection, schedule: Q01DX009 (ip), vehicle: saline with Tween-80): 6 of 6
